# Test system: Human liver cancer-derived cells (HepG2) cell aggregates
# Assay: Oleic acid concentration dependence of lipid droplet region in HepG2 cell aggregates, measuring method C (Example 3)
# Format: cell-based
# Details: 2 days
# Procedure: Human liver cancer-derived cells (HepG2) were cultured for 2 days in a cell culture vessel (“EZSPHERE” manufactured by AGC-Techno Glass Co., Ltd.) having low-cell-adhesive compartments to prepare a cell aggregate. The low-cell-adhesive compartments are provided with a low-protein-adhesive coat. Cell aggregates were formed in a DMEM medium containing 10% fetal bovine serum in the low-cell-adhesive compartments. To the cell aggregate, sodium oleate was added at a final concentration of 75 μM, 150 μM or 300 μM in a DMEM medium containing 1% fatty acid-free bovine serum albumin instead of fetal bovine serum, and the cell aggregate was cultured for 2 days to induce formation of lipid droplets. A cell aggregate cultured for 2 days in a DMEM medium containing 1% fatty acid-free bovine serum albumin instead of fetal bovine serum without adding sodium oleate was also prepared. For each sample in which the concentration of oleic acid was 0 μM, 75 μM, 150 μM or 300 μM, the refractive index distribution data of the cell aggregate was acquired by the refractive index distribution measuring method C. The results of coloring for each refractive index are shown in A to C of FIG. 43. In the obtained refractive index distribution data, a region where the refractive index (n) was greater than 1.340 was determined as a cell aggregate region. In each sample, six cell aggregate regions having diameters of 75 to 150 μm and volumes of 500 to 5000 pL were extracted as evaluation objects. The diameters and volumes of the six cell aggregates of interest are shown in A and B of FIG. 44, respectively. […] In the cell aggregate region of interest, a region having a refractive index (n) of greater than 1.375 was determined as a lipid droplet region. The ratio of the volume of the lipid droplet region to the volume of the cell aggregate region of interest (also referred to as the “ratio of the lipid droplet region”).) was calculated.
smiles,measurement,setting,value
CCCCCCCC/C=C\CCCCCCCC(=O)O [oleic acid],average diameter of the six cell aggregates of interest,"oleic acid 75 μM, standard deviation 13.3 μm",111.5 μm
same,average diameter of the six cell aggregates of interest,"oleic acid 150 μM, standard deviation 14.4 μm",109.6 μm
same,average diameter of the six cell aggregates of interest,"oleic acid 300 μM, standard deviation 15.3 μm",103.0 μm

# — US20250052678A1, “EVALUATION METHOD, EVALUATION DEVICE, AND INFORMATION PROCESSING PROGRAM” (HAMAMATSU PHOTONICS K.K., priority 2021, published 2025)
